# Reference: publication PMC3970802
# Amino acid sequences for entries named in this document (tags omitted). A change or cut given only in a name is not applied to a line headed by its entry.
# UniProt P54253: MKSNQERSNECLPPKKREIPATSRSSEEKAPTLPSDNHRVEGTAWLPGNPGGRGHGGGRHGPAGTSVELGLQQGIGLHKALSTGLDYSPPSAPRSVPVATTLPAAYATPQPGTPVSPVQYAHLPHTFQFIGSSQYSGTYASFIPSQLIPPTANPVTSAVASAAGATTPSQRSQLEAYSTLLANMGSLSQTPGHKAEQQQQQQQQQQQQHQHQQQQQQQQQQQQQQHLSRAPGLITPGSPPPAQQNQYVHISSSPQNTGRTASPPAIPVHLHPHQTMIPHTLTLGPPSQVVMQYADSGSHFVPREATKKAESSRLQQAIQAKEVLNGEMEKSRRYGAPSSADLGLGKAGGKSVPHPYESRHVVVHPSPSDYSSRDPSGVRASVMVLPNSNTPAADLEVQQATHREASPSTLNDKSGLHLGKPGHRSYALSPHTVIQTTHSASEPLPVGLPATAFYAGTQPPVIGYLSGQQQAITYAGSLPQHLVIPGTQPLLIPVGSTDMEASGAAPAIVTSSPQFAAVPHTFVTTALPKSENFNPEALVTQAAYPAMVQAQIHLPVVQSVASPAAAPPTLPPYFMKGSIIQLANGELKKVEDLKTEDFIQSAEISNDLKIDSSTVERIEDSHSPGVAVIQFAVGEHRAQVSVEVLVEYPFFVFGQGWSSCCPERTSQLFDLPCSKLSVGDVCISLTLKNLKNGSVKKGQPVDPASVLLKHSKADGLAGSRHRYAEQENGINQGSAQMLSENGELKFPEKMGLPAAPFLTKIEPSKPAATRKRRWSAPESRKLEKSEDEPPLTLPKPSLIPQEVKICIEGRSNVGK
# Results are given in words; binding and its absence hold for the method and conditions named. For part of these data: In cells and extracts the contact can be indirect. Some binding calls cover weakened binding; strength is not graded here.
# Legend:
# [1] = biological target: AXH domain of ataxin-1, recombinant protein for size exclusion chromatography (UniProt P54253); assay: SEC; analytical, Superdex-75 10/300 GL, 20 mM Tris-HCl pH 7, 150 mM NaCl, 1 mM TCEP; 200 ul of 150 uM protein incubated 24 h at 37 °C, each injected separately; 0.8 ml/min; dimer to monomers; both purified
# [2] = biological target: Full-length non-expanded (Q30) ataxin-1, CFP or YFP fused at its N-terminus (UniProt P54253); assay: FRET or BRET; acceptor photobleaching FRET between co-expressed CFP and YFP fusions in COS cells, fixed with 4% paraformaldehyde 54 h after transfection; Zeiss LSM 510 confocal microscope
Substance,binding [1],binding [2]
"AXH domain of ataxin-1, recombinant protein for size exclusion chromatography (from UniProt P54253 562-693) (domain or fragment)",binds,
"Full-length non-expanded (Q30) ataxin-1, CFP or YFP fused at its N-terminus (from UniProt P54253 1-815)",,binds
Full-length non-expanded (Q30) ataxin-1 N-terminal to YFP (from UniProt P54253 1-815),,binds
